Measurements reported in PubChem BioAssay AID1224830 (NIAID, 2016).

- Test: 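Host factors that control LPS-induced TNF expression in human macrophages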 (primary screen)
- Cell system: human THP-1 monocytic leukaemia cells, TNF dual-luciferase reporter clone, PMA-differentiated to macrophage-like cells
- Knock-down reagent: siRNA pool against human genes, 50 nM
- Time to read-out: LPS for 4 h, given about 3 days after siRNA transfection
- Treatment: bacterial LPS (TLR4 ligand), 10 ng/ml
- Detection: 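TNF firefly reporter luminescence divided by renilla, normalised to the plate median, then turned into a robust z-score for each replicate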
- Reading the numbers: TNF reporter robust z-score: higher = stronger TNF reporter response to LPS
- Active means: 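a well is active when its z-score exceeds 2.8 or falls below -1.5; control wells carry no call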
The deposit covers about 18,000 reagents; below is an unselected part. About 2,900 of all reagents (16%) count as active. 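Calls are made per well; low scores hint the gene aids the LPS response, high scores that it dampens it.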 Entries without a mark were called inactive. Repeated entries: four replicate wells of each siRNA pool.

target gene | PubChem SID | TNF reporter robust z-score
AURKAIP1 | SID315457332 | -1.23
AURKAIP1 | SID315457332 | 0
AURKAIP1 | SID315457332 | 0.02
AURKAIP1 | SID315457332 | -0.42
DGKB | SID315448239 | -0.86
DGKB | SID315448239 | -0.67
DGKB | SID315448239 | -0.57
DGKB | SID315448239 | -0.2
LRRC18 | SID315464991 | 1.45
LRRC18 | SID315464991 | 3.33 (active)
LRRC18 | SID315464991 | 3.65 (active)
LRRC18 | SID315464991 | -0.23
INA | SID315453055 | -0.04
INA | SID315453055 | -0.48
INA | SID315453055 | 0.31
INA | SID315453055 | -0.39
COPS7A | SID315456358 | -2.1 (active)
COPS7A | SID315456358 | -1.55 (active)
COPS7A | SID315456358 | -1.93 (active)
COPS7A | SID315456358 | -1.68 (active)
KAT6A | SID315452368 | 0.62
KAT6A | SID315452368 | 1.12
KAT6A | SID315452368 | 2.35
KAT6A | SID315452368 | 1.4
MTHFD2 | SID315454368 | -0.66
MTHFD2 | SID315454368 | 0.63
MTHFD2 | SID315454368 | 0.22
MTHFD2 | SID315454368 | 0.07
MC1R | SID315449899 | -0.47
MC1R | SID315449899 | 0.27
MC1R | SID315449899 | -0.59
MC1R | SID315449899 | 0.71
HCP5 | SID315454409 | 1.28
HCP5 | SID315454409 | 0.26
HCP5 | SID315454409 | 0.48
HCP5 | SID315454409 | 1.39
HCN2 | SID315447533 | -0.45
HCN2 | SID315447533 | 3.35 (active)
HCN2 | SID315447533 | 1.46
HCN2 | SID315447533 | 1.58
OR13J1 | SID315464695 | -0.95
OR13J1 | SID315464695 | -0.19
OR13J1 | SID315464695 | -0.01
OR13J1 | SID315464695 | 0.32
LMX1B | SID315449788 | 2.67
LMX1B | SID315449788 | -0.29
LMX1B | SID315449788 | 0.05
LMX1B | SID315449788 | -0.99
ASB2 | SID315456843 | 0.81
ASB2 | SID315456843 | -0.99
ASB2 | SID315456843 | 1.56
ASB2 | SID315456843 | 0.18
DCAF5 | SID315452844 | -0.13
DCAF5 | SID315452844 | 0.11
DCAF5 | SID315452844 | -0.12
DCAF5 | SID315452844 | 0.67
MIPEP | SID315449977 | 0.41
MIPEP | SID315449977 | 0.57
MIPEP | SID315449977 | 0.06
MIPEP | SID315449977 | 0.59
KRT17 | SID315449700 | -0.67
KRT17 | SID315449700 | -0.6
KRT17 | SID315449700 | -0.93
KRT17 | SID315449700 | -0.72
VRK2 | SID315452126 | 2.06
VRK2 | SID315452126 | 0.61
VRK2 | SID315452126 | 2.86 (active)
VRK2 | SID315452126 | 4.05 (active)
MLC1 | SID315455073 | 0.14
MLC1 | SID315455073 | -0.22
MLC1 | SID315455073 | -0.32
MLC1 | SID315455073 | 0.56
KRTAP4-2 | SID315460651 | 1.38
KRTAP4-2 | SID315460651 | 1.68
KRTAP4-2 | SID315460651 | 1.7
KRTAP4-2 | SID315460651 | 1.06
INSR | SID315449522 | -0.04
INSR | SID315449522 | 0.31
INSR | SID315449522 | -0.4
INSR | SID315449522 | 0.45
CLLU1-AS1 | SID315465047 | 1.59
CLLU1-AS1 | SID315465047 | -0.68
CLLU1-AS1 | SID315465047 | -0.34
CLLU1-AS1 | SID315465047 | 0.56
PFKFB4 | SID315450533 | -1.12
PFKFB4 | SID315450533 | -0.19
PFKFB4 | SID315450533 | 0.16
PFKFB4 | SID315450533 | -0.34
SLC9A6 | SID315454124 | 1.09
SLC9A6 | SID315454124 | 1.21
SLC9A6 | SID315454124 | -0.18
SLC9A6 | SID315454124 | 1.47
TNS1 | SID315451936 | -0.38
TNS1 | SID315451936 | 0.85
TNS1 | SID315451936 | 0.62
TNS1 | SID315451936 | 0.4
BCAT2 | SID315447519 | 2.41
BCAT2 | SID315447519 | 3.57 (active)
BCAT2 | SID315447519 | 1.94
BCAT2 | SID315447519 | 3.14 (active)
SARAF | SID315456841 | 0.34
SARAF | SID315456841 | 1.51
SARAF | SID315456841 | 2.5
SARAF | SID315456841 | -1.06
TDRD12 | SID315460933 | 1.69
TDRD12 | SID315460933 | -0.5
TDRD12 | SID315460933 | -0.44
TDRD12 | SID315460933 | 0
LIPK | SID315465079 | 0.04
LIPK | SID315465079 | 0.28
LIPK | SID315465079 | -0.18
